± gives the standard deviation of the averaged measurements. This is a selection; strong and weak results do not stand in their true shares.
Columns and labels:
Experiment in all cases: NP40-soluble protein abundance relative to vehicle (solubility fold change) (ratio); higher = more soluble protein in presence of AMP-PNP
[1] = biological target: T1, A6NMH8 and related entries (UniProt P60033)
T1 sequence (whole entry): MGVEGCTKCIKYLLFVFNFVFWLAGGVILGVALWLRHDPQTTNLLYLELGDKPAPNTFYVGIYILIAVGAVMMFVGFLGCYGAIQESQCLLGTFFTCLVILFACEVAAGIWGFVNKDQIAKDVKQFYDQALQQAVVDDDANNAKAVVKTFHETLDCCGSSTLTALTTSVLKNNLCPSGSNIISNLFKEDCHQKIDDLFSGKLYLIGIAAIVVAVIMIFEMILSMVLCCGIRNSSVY
Procedure, shortened: (§1)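 Eight concentrations, 0.1 to 10 mM, were tested on Jurkat crude lysate for 10 min at room temperature and then 3 min at 37 °C, in three independent experiments. The lysate was solubilised with 0.8% NP40 and benzonase, ultracentrifuged, and the supernatant TMT-labelled for LC-MS/MS. Each value is the fold change against the detergent-processed vehicle in its own replicate, from vsn-normalised intensities.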

[2] = biological target: T2, A8K878 and related entries (UniProt P55145)
T2 sequence (whole entry): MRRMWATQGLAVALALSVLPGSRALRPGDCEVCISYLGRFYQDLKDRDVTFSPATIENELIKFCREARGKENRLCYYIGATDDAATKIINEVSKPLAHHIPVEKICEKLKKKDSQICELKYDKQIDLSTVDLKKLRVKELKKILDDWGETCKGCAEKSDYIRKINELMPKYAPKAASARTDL
Procedure, shortened: as §1

[3] = biological target: T3, B1AKJ5 and related entries (UniProt O43847)
T3 sequence (whole entry): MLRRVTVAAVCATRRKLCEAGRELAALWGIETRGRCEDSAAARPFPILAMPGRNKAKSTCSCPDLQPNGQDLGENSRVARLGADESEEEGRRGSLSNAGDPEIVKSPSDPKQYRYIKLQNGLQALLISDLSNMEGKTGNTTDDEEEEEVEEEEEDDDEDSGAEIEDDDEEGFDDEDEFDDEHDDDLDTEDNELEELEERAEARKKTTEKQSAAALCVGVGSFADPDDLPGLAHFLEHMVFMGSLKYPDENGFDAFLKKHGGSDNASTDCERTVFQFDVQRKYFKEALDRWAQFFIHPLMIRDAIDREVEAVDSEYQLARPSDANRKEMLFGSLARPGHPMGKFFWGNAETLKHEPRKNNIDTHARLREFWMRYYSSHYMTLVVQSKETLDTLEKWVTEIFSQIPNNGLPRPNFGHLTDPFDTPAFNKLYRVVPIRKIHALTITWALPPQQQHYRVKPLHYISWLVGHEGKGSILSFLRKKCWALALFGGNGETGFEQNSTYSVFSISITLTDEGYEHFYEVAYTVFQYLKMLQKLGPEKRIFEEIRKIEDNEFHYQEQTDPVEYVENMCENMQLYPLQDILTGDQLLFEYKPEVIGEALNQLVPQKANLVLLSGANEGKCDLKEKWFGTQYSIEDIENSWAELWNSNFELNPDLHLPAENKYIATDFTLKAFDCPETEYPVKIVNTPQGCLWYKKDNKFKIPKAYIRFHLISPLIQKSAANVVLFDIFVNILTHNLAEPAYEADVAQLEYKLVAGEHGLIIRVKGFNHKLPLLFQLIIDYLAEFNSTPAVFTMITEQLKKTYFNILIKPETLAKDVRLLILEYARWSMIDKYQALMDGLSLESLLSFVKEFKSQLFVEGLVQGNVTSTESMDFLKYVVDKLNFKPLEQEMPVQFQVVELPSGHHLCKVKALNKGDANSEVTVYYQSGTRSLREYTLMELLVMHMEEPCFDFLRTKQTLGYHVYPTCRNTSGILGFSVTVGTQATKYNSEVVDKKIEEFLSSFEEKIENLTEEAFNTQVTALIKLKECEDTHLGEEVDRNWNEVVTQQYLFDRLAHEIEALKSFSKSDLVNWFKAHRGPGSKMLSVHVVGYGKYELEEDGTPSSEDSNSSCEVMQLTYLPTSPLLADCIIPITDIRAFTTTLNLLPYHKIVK
Procedure, shortened: as §1

[4] = biological target: T4, B4DH95 and related entries (UniProt Q6P9H5)
T4 sequence (whole entry): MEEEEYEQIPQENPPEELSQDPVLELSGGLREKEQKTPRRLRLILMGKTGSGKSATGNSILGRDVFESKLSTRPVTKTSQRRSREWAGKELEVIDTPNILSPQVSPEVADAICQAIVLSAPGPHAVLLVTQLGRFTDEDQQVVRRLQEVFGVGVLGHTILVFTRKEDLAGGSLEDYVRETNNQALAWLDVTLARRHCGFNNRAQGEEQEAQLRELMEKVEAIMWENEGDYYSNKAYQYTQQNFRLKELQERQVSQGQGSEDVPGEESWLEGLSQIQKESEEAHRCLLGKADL
Procedure, shortened: as §1

[5] = biological target: T5, B4DI03 and related entries (UniProt Q9BY50)
T5 sequence (whole entry): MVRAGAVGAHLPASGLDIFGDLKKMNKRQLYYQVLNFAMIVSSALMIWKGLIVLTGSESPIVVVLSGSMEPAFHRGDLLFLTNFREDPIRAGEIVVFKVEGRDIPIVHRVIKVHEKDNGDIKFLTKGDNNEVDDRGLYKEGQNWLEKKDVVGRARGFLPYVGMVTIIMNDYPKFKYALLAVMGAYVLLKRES
Procedure, shortened: as §1

[6] = biological target: T6, B4DZG1 and related entries (UniProt Q9Y483)
T6 sequence (whole entry): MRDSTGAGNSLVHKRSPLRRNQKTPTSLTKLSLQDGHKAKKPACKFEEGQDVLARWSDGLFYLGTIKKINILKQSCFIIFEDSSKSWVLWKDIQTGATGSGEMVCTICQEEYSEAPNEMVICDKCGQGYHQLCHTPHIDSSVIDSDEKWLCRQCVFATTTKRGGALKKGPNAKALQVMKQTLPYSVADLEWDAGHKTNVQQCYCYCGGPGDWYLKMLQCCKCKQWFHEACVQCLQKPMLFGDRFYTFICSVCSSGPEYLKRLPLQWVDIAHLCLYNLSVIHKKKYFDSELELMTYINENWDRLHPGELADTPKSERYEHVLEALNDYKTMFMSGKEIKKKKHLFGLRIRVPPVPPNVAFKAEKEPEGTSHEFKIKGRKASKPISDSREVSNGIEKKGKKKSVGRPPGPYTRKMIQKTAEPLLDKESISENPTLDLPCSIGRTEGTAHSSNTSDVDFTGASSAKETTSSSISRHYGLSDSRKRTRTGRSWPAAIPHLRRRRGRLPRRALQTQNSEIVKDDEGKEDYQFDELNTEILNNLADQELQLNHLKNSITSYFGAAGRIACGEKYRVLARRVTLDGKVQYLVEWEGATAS
Procedure, shortened: as §1

[7] = biological target: T7, B5MCQ4 (UniProt Q9BY27)
T7 sequence (whole entry): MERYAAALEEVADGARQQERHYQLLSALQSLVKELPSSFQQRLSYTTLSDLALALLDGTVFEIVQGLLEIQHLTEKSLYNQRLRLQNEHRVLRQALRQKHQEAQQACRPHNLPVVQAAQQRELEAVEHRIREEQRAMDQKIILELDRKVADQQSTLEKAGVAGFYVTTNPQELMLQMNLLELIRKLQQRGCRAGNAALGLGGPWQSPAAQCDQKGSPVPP
Procedure, shortened: as §1

[8] = biological target: T8, B7WPL9 and related entries (UniProt Q6PFW1)
T8 sequence (whole entry): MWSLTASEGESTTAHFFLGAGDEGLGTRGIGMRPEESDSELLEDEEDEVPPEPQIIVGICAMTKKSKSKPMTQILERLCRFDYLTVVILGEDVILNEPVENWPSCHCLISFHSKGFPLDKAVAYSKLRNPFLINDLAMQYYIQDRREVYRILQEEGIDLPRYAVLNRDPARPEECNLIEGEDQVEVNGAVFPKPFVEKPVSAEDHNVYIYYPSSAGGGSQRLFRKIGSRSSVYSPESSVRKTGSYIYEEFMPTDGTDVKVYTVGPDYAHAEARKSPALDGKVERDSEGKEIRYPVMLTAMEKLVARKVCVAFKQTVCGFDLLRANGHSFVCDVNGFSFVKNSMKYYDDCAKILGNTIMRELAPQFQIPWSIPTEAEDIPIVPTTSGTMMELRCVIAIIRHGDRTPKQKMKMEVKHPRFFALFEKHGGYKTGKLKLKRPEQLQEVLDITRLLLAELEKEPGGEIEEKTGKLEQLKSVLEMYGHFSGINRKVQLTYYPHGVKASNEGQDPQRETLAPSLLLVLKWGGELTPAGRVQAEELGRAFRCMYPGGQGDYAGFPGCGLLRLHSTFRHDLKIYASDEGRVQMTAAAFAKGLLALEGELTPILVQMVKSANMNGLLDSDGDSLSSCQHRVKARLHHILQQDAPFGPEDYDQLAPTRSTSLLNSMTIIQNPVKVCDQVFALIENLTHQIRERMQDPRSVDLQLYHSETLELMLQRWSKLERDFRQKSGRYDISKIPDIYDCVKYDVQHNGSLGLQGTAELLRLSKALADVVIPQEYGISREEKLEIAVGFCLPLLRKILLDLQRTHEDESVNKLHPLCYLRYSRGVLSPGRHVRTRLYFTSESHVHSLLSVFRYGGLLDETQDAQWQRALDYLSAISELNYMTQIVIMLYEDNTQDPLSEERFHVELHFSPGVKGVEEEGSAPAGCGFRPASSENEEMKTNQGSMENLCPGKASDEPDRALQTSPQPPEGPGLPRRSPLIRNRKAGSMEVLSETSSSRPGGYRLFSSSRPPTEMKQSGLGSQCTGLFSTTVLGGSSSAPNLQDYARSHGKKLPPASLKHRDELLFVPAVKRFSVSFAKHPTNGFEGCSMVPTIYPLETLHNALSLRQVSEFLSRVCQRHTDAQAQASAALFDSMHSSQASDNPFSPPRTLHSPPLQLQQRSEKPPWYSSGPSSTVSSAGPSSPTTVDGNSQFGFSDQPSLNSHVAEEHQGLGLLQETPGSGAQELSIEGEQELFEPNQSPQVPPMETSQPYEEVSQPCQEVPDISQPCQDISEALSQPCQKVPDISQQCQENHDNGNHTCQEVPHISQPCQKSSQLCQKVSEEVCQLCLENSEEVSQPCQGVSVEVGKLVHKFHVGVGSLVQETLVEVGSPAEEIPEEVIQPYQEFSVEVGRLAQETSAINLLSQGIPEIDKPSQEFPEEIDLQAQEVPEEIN
Procedure, shortened: as §1

Nc1ncnc2c1ncn2[C@@H]1O[C@H](COP(=O)(O)OP(=O)(O)NP(=O)(O)O)[C@@H](O)[C@H]1O [adenylyl imidodiphosphate]
NP40-soluble protein abundance ([1]; concentration: 1mM): 0.988 ± 0.032 | NP40-soluble protein abundance ([1]; concentration: 2mM): 0.985 ± 0.02 | NP40-soluble protein abundance ([1]; concentration: 4mM): 0.971 ± 0.043 | NP40-soluble protein abundance ([1]; concentration: 6mM): 0.964 ± 0.012 | NP40-soluble protein abundance ([1]; concentration: 8mM): 0.982 ± 0.015 | NP40-soluble protein abundance ([1]; concentration: 10mM): 0.939 ± 0.03 | NP40-soluble protein abundance ([2]; concentration: 1mM): 0.971 ± 0.057 | NP40-soluble protein abundance ([2]; concentration: 2mM): 1.05 ± 0.064 | NP40-soluble protein abundance ([2]; concentration: 4mM): 0.932 ± 0.076 | NP40-soluble protein abundance ([2]; concentration: 6mM): 0.942 ± 0.046 | NP40-soluble protein abundance ([2]; concentration: 8mM): 0.919 ± 0.022 | NP40-soluble protein abundance ([2]; concentration: 10mM): 0.889 ± 0.087 | NP40-soluble protein abundance ([3]; concentration: 1mM): 1 ± 0.016 | NP40-soluble protein abundance ([3]; concentration: 2mM): 0.972 ± 0.013 | NP40-soluble protein abundance ([3]; concentration: 4mM): 0.9652 ± 0.0017 | NP40-soluble protein abundance ([3]; concentration: 6mM): 0.978 ± 0.014 | NP40-soluble protein abundance ([3]; concentration: 8mM): 0.9862 ± 0.0089 | NP40-soluble protein abundance ([3]; concentration: 10mM): 0.966 ± 0.051 | NP40-soluble protein abundance ([4]; concentration: 1mM): 0.982 ± 0.023 | NP40-soluble protein abundance ([4]; concentration: 2mM): 0.941 ± 0.031 | NP40-soluble protein abundance ([4]; concentration: 4mM): 0.991 ± 0.026 | NP40-soluble protein abundance ([4]; concentration: 6mM): 1.01 ± 0.069 | NP40-soluble protein abundance ([4]; concentration: 8mM): 1.03 ± 0.052 | NP40-soluble protein abundance ([4]; concentration: 10mM): 0.994 ± 0.035 | NP40-soluble protein abundance ([5]; concentration: 1mM): 0.973 ± 0.031 | NP40-soluble protein abundance ([5]; concentration: 2mM): 1.02 ± 0.051 | NP40-soluble protein abundance ([5]; concentration: 4mM): 0.965 ± 0.042 | NP40-soluble protein abundance ([5]; concentration: 6mM): 0.952 ± 0.02 | NP40-soluble protein abundance ([5]; concentration: 8mM): 0.946 ± 0.031 | NP40-soluble protein abundance ([5]; concentration: 10mM): 0.949 ± 0.046 | NP40-soluble protein abundance ([6]; concentration: 1mM): 0.992 ± 0.027 | NP40-soluble protein abundance ([6]; concentration: 2mM): 1.11 ± 0.14 | NP40-soluble protein abundance ([6]; concentration: 4mM): 1.08 ± 0.046 | NP40-soluble protein abundance ([6]; concentration: 6mM): 1.13 ± 0.049 | NP40-soluble protein abundance ([6]; concentration: 8mM): 1.14 ± 0.096 | NP40-soluble protein abundance ([6]; concentration: 10mM): 1.28 ± 0.15 | NP40-soluble protein abundance ([7]; concentration: 1mM): 0.977 ± 0.025 | NP40-soluble protein abundance ([7]; concentration: 2mM): 0.9829 ± 0.0095 | NP40-soluble protein abundance ([7]; concentration: 4mM): 0.967 ± 0.037 | NP40-soluble protein abundance ([7]; concentration: 6mM): 0.972 ± 0.03 | NP40-soluble protein abundance ([7]; concentration: 8mM): 0.988 ± 0.053 | NP40-soluble protein abundance ([7]; concentration: 10mM): 0.974 ± 0.057 | NP40-soluble protein abundance ([8]; concentration: 1mM): 0.997 ± 0.016 | NP40-soluble protein abundance ([8]; concentration: 2mM): 1.04 ± 0.013 | NP40-soluble protein abundance ([8]; concentration: 4mM): 1.02 ± 0.028
